Reference: US20210261642A1, “SOLUBILITY OF GLP-1 PEPTIDE” (Novo Nordisk A/S, priority 2017, published 2021)
This continues a long series; more values of the same kind are listed elsewhere.

Assay: Assay (I): Determination of Solubility (96-well plate, pH 3.0-11.0, organic solvent 0-70% w/w, UV absorption at 280 nm)
Format: physicochemical
Details: MeCN 44.5% w/w, Method 1
Method: Assay (I): Determination of Solubility
96-Well Plate Preparation
96-well plates containing target peptide in a solid form were prepared in one of two ways:
Method 1 (evaporation): Addition of 100 μl stock solution of said peptide at a concentration of 4-6 mg/ml to each well of a 96-well half area plate (150 μl well size). Subsequently the solvent was evaporated by applying a vacuum until the solvent was completely removed.
Method 2 (precipitation): Addition of a certain volume of a stock solution of said peptide containing to each well of a 96-well half area plate followed by the addition of a certain volume of concentrated phosphoric acid to obtain a pH of 4.6 followed by addition of a certain volume of ethanol resulting in a final ethanol concentration of 20% v/v. Subsequently the plate was stored at 4° C. for 1 h and then centrifuged at 4,000 rpm for 20 min. Finally the supernatant was removed. The concentration of the stock solution was chosen in a way that the final amount of peptide after supernatant removal was >0.4 mg per well.
In both cases the stock solution was prepared by adding de-ionized water to a certain amount of powder of said peptide followed by a stepwise addition of small amounts of a concentrated sodium hydroxide solution until said peptide was completely in solution.
To determine solubility of a target peptide at different pH and organic solvent concentrations, two different buffer systems were used in independent experiments to cover the whole range from pH 3.0 to pH 11.0. Buffer system 1 covers pH 3.0-7.5 and buffer system 2 covers pH 7.5-11.0. For each buffer system 96 different solvent compositions were premixed in the following way: • 1. A low pH buffer (adjusted to either pH 3.0 or pH 7.5) and a high pH buffer (adjusted to either pH 7.5 or pH 11.0) were mixed at 8 different ratios to obtain values between pH 3.0 and pH 7.5 or pH 7.5 and pH 11.0, respectively. The total volume after mixing was 300 μl. • 2. 12 different amounts of organic solvent were then added to these buffers to obtain organic solvent (e.g. ethanol) concentrations between 0 and 70% w/w. • 3. Water was then added to obtain a total weight of 1.0 g of solvent in each well.
After preparing the 96 different solvent systems, 100 μl of each system was transferred to the 96-well plate containing the solid form of the target peptide (prepared as described in the section “96-well plate preparation”). The plate was then stored at a given temperature (between 5° C. and 70° C.) for a given time on a rotating shaker set to 400 rpm. At regular time intervals the plate was centrifuged (4,000 rpm for 10 min) and a 10 μl sample was taken from each well. The samples were then analysed by UV absorption at 280 nm for peptide quantification. Peptide concentration results are given as UV absorption at 280 nm of the sample subtracted UV absorption at 280 nm of a well comprising 10 μl water.
The buffers used were as follows: • Buffer system 1 (for the pH range from pH 3.0-7.5)
• Buffer system 2 (for the pH ranae from pH 7.5-11.0)
Solubility of liraglutide was determined using Assay (I) described herein. Liraglutide was prepared using Method 1 (evaporation) or Method 2 (precipitation) as described in subsection “96-well plate preparation”.

Compound: CCCCCCCCCCCCCCCC(=O)N[C@@H](CCC(=O)NCCCC[C@H](NC(=O)[C@H](C)NC(=O)[C@H](C)NC(=O)[C@H](CCC(N)=O)NC(=O)CNC(=O)[C@H](CCC(=O)O)NC(=O)[C@H](CC(C)C)NC(=O)[C@H](Cc1ccc(O)cc1)NC(=O)[C@H](CO)NC(=O)[C@H](CO)NC(=O)[C@@H](NC(=O)[C@H](CC(=O)O)NC(=O)[C@H](CO)NC(=O)[C@@H](NC(=O)[C@H](Cc1ccccc1)NC(=O)[C@@H](NC(=O)CNC(=O)[C@H](CCC(=O)O)NC(=O)[C@H](C)NC(=O)[C@@H](N)Cc1cnc[nH]1)[C@@H](C)O)[C@@H](C)O)C(C)C)C(=O)N[C@@H](CCC(=O)O)C(=O)N[C@@H](Cc1ccccc1)C(=O)N[C@H](C(=O)N[C@@H](C)C(=O)N[C@@H](Cc1c[nH]c2ccccc12)C(=O)N[C@@H](CC(C)C)C(=O)N[C@H](C(=O)N[C@@H](CCCNC(=N)N)C(=O)NCC(=O)N[C@@H](CCCNC(=N)N)C(=O)NCC(=O)O)C(C)C)[C@@H](C)CC)C(=O)O [liraglutide, Arg34,Lys26-(N-epsilon-(gamma-L-glutamyl(N-alfa-hexadecanoyl)))-GLP-1(7-37)]
- Peptide concentration after 24 h (pH 3.0, 5° C.): 0.7 mg/mL
- Peptide concentration after 5 min (pH 3.0, 70° C.): 1.2 mg/mL
- Peptide concentration after 180 min (pH 3.0, 70° C.): 2.0 mg/mL
- Peptide concentration after 5 min (pH 3.0, RT): 0.5 mg/mL
- Peptide concentration after 180 min (pH 3.0, RT): 0.9 mg/mL
- Peptide concentration after 24 h (pH 3.0, RT): 0.1 mg/mL
- Peptide concentration after 5 min (pH 3.6, 5° C.): 0.2 mg/mL
- Peptide concentration after 180 min (pH 3.6, 5° C.): 0.6 mg/mL
- Peptide concentration after 24 h (pH 3.6, 5° C.): 0.5 mg/mL
- Peptide concentration after 5 min (pH 3.6, 70° C.): 0.5 mg/mL
- Peptide concentration after 180 min (pH 3.6, 70° C.): 0.8 mg/mL
- Peptide concentration after 5 min (pH 3.6, RT): 0.3 mg/mL
- Peptide concentration after 180 min (pH 3.6, RT): 0.5 mg/mL
- Peptide concentration after 24 h (pH 3.6, RT): 0.0 mg/mL
- Peptide concentration after 5 min (pH 4.3, 5° C.): 0.2 mg/mL
- Peptide concentration after 180 min (pH 4.3, 5° C.): 0.3 mg/mL
- Peptide concentration after 24 h (pH 4.3, 5° C.): 0.3 mg/mL
- Peptide concentration after 5 min (pH 4.3, 70° C.): 0.5 mg/mL
- Peptide concentration after 180 min (pH 4.3, 70° C.): 0.6 mg/mL
- Peptide concentration after 5 min (pH 4.3, RT): 0.2 mg/mL
- Peptide concentration after 180 min (pH 4.3, RT): 0.2 mg/mL
- Peptide concentration after 24 h (pH 4.3, RT): 0.1 mg/mL
- Peptide concentration after 5 min (pH 4.9, 5° C.): 0.2 mg/mL
- Peptide concentration after 180 min (pH 4.9, 5° C.): 0.3 mg/mL
- Peptide concentration after 24 h (pH 4.9, 5° C.): 0.3 mg/mL
- Peptide concentration after 5 min (pH 4.9, 70° C.): 0.4 mg/mL
- Peptide concentration after 180 min (pH 4.9, 70° C.): 0.5 mg/mL
- Peptide concentration after 5 min (pH 4.9, RT): 0.2 mg/mL
- Peptide concentration after 180 min (pH 4.9, RT): 0.2 mg/mL
- Peptide concentration after 24 h (pH 4.9, RT): 0.1 mg/mL
- Peptide concentration after 5 min (pH 5.6, 5° C.): 0.2 mg/mL
- Peptide concentration after 180 min (pH 5.6, 5° C.): 0.6 mg/mL
- Peptide concentration after 24 h (pH 5.6, 5° C.): 0.3 mg/mL
- Peptide concentration after 5 min (pH 5.6, 70° C.): 1.1 mg/mL
- Peptide concentration after 180 min (pH 5.6, 70° C.): 1.4 mg/mL
- Peptide concentration after 5 min (pH 5.6, RT): 0.5 mg/mL
- Peptide concentration after 180 min (pH 5.6, RT): 0.7 mg/mL
- Peptide concentration after 24 h (pH 5.6, RT): 0.1 mg/mL
- Peptide concentration after 5 min (pH 6.2, 5° C.): 1.1 mg/mL
- Peptide concentration after 180 min (pH 6.2, 5° C.): 1.4 mg/mL
- Peptide concentration after 24 h (pH 6.2, 5° C.): 1.1 mg/mL
- Peptide concentration after 5 min (pH 6.2, 70° C.): 1.8 mg/mL
- Peptide concentration after 180 min (pH 6.2, 70° C.): 2.2 mg/mL
- Peptide concentration after 5 min (pH 6.2, RT): 1.4 mg/mL
- Peptide concentration after 180 min (pH 6.2, RT): 1.2 mg/mL
- Peptide concentration after 24 h (pH 6.2, RT): 0.7 mg/mL
- Peptide concentration after 5 min (pH 6.9, 5° C.): 1.4 mg/mL
- Peptide concentration after 180 min (pH 6.9, 5° C.): 2.0 mg/mL
- Peptide concentration after 24 h (pH 6.9, 5° C.): 1.9 mg/mL
- Peptide concentration after 5 min (pH 6.9, 70° C.): 2.7 mg/mL
